Reference: patent US20260243940A1, “COMPOUND, POLYMERIZABLE COMPOSITION, CURED PRODUCT, OPTICAL FILM, POLARIZING PLATE, AND IMAGE DISPLAY DEVICE” (FUJIFILM Corporation, priority 2019, published 2026)
Some entries share one result that the patent states for a list of compounds.

Tests used:
[1] = Solubility in cyclopentanone; type: physicochemical; conditions: summary of Table 3
Protocol: Cyclopentanone was added to 25 mg of each synthesized compound so that the concentration of each compound was 40% by mass, and the mixture was heated and stirred at 50° C. for 1 minute.
Then, the mixture was left to stand at 20° C. for 10 minutes, and in a case where there is no undissolved residue or precipitation, it is determined that the mixture can be dissolved at 40% by mass.
In a case where there was an undissolved residue or precipitation, cyclopentanone was further added to the mixture to reduce the concentration by 5% by mass, an operation of heating and stirring at 50° C. for 1 minute and then leaving the mixture stand at 20° C. for 10 minutes was repeatedly performed until there was no undissolved residue or precipitation, thereby confirming the solubility.

[2] = Precipitation suppression (recrystallization temperature on cooling, hot stage under polarizing microscope); type: physicochemical; conditions: summary of Table 3
Protocol: Two polarizers of an optical microscope (ECLIPSE E600 POL, manufactured by Nikon Corporation) were arranged so that they were orthogonal to each other, and a sample stand was set between the two polarizers.
Then, a small amount of each synthesized compound was placed on a slide glass, and the slide glass was set on a hot stage placed on a sample stand. While observing the state of the sample with a microscope, the temperature of the hot stage was raised at 5° C./min, and the type of liquid crystal phase and the temperature at which phase transition occurred were recorded from the state of the sample.
In addition, for the recrystallization temperature, the temperature was elevated up to an isotropic phase and then lowered at 5° C./min, and a temperature at which crystals were precipitated was recorded.
Based on the results of the recrystallization temperature measured by the above-mentioned method for evaluating the phase transition temperature, the evaluation was made according to the following standard. The results are shown in Table 3 below. • A: Lower than 50° C. • B: 50° C. or higher and 100° C. or lower • C: Higher than 100° C. and 150° C. or lower • D: Higher than 150° C. and 180° C. or lower

C=CC(=O)OCCCCOC(=O)C1CCC(C2CCC(C(=O)Oc3ccc(OC(=O)C4CCC(C5CCC(C(=O)OCCCCOC(=O)C=C)CC5)CC4)c4c(OCC)cccc34)CC2)CC1 (stereo not drawn) [Compound 1-8]
solubility (in words) [1]: excellent

C=CC(=O)OCCCCOC(=O)C1CCC(C2CCC(C(=O)Oc3cc(C)c(OC(=O)C4CCC(C5CCC(C(=O)OCCCCOC(=O)C=C)CC5)CC4)c4ccccc34)CC2)CC1 (stereo not drawn) [Compound 1-2]
solubility (in words) [1]: excellent

C=CC(=O)OCCCCOC(=O)C1CCC(C2CCC(C(=O)Oc3cc(C(=O)OC)c(OC(=O)C4CCC(C5CCC(C(=O)OCCCCOC(=O)C=C)CC5)CC4)c4ccccc34)CC2)CC1 (stereo not drawn) [Compound 1-5]
precipitation suppression (in words) [2]: excellent | solubility (in words) [1]: excellent

C=CC(=O)OCCOC(=O)C1CCC(C2CCC(C(=O)Oc3ccc(OC(=O)C4CCC(C5CCC(C(=O)OCCOC(=O)C=C)CC5)CC4)c4c(OC(C)=O)cccc34)CC2)CC1 (stereo not drawn) [Compound 1-13]
solubility (in words) [1]: excellent

C=CC(=O)OCCCCOC(=O)C1CCC(C2CCC(C(=O)Oc3ccc(OC(=O)C4CCC(C5CCC(C(=O)OCCCCOC(=O)C=C)CC5)CC4)c4c(C)cccc34)CC2)CC1 (stereo not drawn) [Compound 1-7]
precipitation suppression (in words) [2]: excellent | solubility (in words) [1]: excellent

C=CC(=O)OCCCCOC(=O)C1CCC(C2CCC(C(=O)Oc3cc(OCC)c(OC(=O)C4CCC(C5CCC(C(=O)OCCCCOC(=O)C=C)CC5)CC4)c4ccccc34)CC2)CC1 (stereo not drawn) [Compound 1-4]
precipitation suppression (in words) [2]: excellent | solubility (in words) [1]: excellent

C=CC(=O)OCCCCOC(=O)C1CCC(C2CCC(C(=O)Oc3ccc(OC(=O)C4CCC(C5CCC(C(=O)OCCCCOC(=O)C=C)CC5)CC4)c4c(OCCCCCCCC)cccc34)CC2)CC1 (stereo not drawn) [Compound 1-10]
solubility (in words) [1]: excellent

C=CC(=O)OCCCCOC(=O)C1CCC(C2CCC(C(=O)Oc3ccc(OC(=O)C4CCC(C5CCC(C(=O)OCCCCOC(=O)C=C)CC5)CC4)c4c(OS(C)(=O)=O)cccc34)CC2)CC1 (stereo not drawn) [Compound 2-3]
solubility (in words) [1]: excellent

C=CC(=O)OCCOCCOCCOC(=O)C1CCC(C2CCC(C(=O)Oc3ccc(OC(=O)C4CCC(C5CCC(C(=O)OCCOCCOCCOC(=O)C=C)CC5)CC4)c4c(OC(C)=O)cccc34)CC2)CC1 (stereo not drawn) [Compound 1-15]
solubility (in words) [1]: excellent

C=CC(=O)OCCCCOC(=O)C1CCC(C2CCC(C(=O)Oc3ccc(OC(=O)C4CCC(C5CCC(C(=O)OCCCCOC(=O)C=C)CC5)CC4)c4c(OC(C)=O)cccc34)CC2)CC1 (stereo not drawn) [Compound 1-11]
solubility (in words) [1]: excellent

C=CC(=O)OCCCCOC(=O)C1CCC(C2CCC(C(=O)Oc3ccc(OC(=O)C4CCC(C5CCC(C(=O)OCCCCOC(=O)C=C)CC5)CC4)c4cc(C)ccc34)CC2)CC1 (stereo not drawn) [Compound 1-6]
precipitation suppression (in words) [2]: excellent | solubility (in words) [1]: excellent

C=C(C)C(=O)OCCCCOC(=O)C1CCC(C2CCC(C(=O)Oc3ccc(OC(=O)C4CCC(C5CCC(C(=O)OCCCCOC(=O)C(=C)C)CC5)CC4)c4c(OC(C)=O)cccc34)CC2)CC1 (stereo not drawn) [Compound 1-12]
solubility (in words) [1]: excellent

C=CC(=O)OCCCCOc1ccc(C(=O)Oc2ccc(C(=O)Oc3ccc(OC(=O)c4ccc(OC(=O)c5ccc(OCCCCOC(=O)C=C)cc5)cc4)c4c(OC(C)=O)cccc34)cc2)cc1 [Compound 2-2]
precipitation suppression (in words) [2]: excellent | solubility (in words) [1]: excellent

C=CC(=O)OCCCCOC(=O)C1CCC(C2CCC(C(=O)Oc3ccc(OC(=O)C4CCC(C5CCC(C(=O)OCCCCOC(=O)C=C)CC5)CC4)c4c(OCCCC)cccc34)CC2)CC1 (stereo not drawn) [Compound 1-9]
solubility (in words) [1]: excellent

C=CC(=O)OCCCCOC(=O)C1CCC(C2CCC(C(=O)Oc3cc(OC)c(OC(=O)C4CCC(C5CCC(C(=O)OCCCCOC(=O)C=C)CC5)CC4)c4ccccc34)CC2)CC1 (stereo not drawn) [Compound 1-3]
precipitation suppression (in words) [2]: excellent | solubility (in words) [1]: excellent
